The text below walks through data of article PMC8396604.

Sequences of proteins named here, by UniProt entry; tags and fusion partners are left off.
UniProt P80206: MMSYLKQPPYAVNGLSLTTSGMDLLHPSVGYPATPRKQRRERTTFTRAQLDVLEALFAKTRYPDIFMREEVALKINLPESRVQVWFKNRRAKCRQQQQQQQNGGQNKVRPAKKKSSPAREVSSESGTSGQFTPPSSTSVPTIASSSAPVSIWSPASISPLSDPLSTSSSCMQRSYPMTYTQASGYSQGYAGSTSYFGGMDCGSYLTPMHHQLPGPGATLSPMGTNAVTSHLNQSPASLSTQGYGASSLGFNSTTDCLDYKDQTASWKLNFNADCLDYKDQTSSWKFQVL
UniProt Q920Q6: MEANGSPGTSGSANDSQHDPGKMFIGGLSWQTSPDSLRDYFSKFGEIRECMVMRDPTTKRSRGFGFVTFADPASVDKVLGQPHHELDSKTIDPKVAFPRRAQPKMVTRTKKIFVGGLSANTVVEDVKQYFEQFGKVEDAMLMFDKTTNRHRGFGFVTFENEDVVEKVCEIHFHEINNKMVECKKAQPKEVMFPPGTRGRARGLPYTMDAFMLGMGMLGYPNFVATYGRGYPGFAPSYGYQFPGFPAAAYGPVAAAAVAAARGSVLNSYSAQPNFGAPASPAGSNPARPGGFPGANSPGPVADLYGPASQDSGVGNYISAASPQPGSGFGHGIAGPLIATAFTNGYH
UniProt P26231: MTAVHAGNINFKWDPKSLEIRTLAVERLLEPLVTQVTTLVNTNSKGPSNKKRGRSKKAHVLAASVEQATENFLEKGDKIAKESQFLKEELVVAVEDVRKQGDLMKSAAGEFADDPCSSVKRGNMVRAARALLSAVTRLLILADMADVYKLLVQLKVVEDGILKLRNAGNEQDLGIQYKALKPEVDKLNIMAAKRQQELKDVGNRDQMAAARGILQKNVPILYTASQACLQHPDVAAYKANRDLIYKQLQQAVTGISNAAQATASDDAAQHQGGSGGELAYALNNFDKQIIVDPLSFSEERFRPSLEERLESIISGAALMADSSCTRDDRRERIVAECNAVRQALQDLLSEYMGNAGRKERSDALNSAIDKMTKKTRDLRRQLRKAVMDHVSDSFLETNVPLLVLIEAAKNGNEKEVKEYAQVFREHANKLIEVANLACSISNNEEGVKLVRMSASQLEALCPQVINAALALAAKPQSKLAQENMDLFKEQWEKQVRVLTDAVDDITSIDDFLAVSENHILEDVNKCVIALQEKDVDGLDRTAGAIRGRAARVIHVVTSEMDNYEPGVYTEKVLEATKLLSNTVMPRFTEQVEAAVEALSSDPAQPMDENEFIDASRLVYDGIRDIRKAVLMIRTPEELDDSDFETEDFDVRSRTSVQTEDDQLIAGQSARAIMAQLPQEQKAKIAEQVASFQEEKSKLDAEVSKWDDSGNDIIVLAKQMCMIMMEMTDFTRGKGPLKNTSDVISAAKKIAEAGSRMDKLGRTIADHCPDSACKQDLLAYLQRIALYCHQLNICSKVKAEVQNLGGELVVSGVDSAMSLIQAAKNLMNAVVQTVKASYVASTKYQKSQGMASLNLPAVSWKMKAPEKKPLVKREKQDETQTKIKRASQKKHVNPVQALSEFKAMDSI
UniProt Q02248: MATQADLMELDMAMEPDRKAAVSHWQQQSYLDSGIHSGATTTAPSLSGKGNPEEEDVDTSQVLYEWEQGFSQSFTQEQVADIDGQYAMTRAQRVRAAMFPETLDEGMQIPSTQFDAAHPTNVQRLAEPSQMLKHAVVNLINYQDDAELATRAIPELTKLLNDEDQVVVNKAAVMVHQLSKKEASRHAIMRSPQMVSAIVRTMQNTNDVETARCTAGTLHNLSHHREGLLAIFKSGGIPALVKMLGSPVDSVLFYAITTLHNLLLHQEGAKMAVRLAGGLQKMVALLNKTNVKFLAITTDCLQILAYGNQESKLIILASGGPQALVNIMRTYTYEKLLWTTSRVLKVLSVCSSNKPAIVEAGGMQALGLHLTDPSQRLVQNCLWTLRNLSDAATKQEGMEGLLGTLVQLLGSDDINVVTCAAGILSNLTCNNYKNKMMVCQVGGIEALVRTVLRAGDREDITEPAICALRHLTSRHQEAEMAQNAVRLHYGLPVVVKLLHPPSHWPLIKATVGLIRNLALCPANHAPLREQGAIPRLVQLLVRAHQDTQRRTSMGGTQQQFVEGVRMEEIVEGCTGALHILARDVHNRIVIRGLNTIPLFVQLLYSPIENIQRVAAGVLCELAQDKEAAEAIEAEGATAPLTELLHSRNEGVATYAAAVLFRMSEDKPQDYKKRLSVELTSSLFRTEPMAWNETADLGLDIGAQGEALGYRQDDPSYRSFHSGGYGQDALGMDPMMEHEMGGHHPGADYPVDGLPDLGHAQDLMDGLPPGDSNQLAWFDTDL
UniProt Q61315: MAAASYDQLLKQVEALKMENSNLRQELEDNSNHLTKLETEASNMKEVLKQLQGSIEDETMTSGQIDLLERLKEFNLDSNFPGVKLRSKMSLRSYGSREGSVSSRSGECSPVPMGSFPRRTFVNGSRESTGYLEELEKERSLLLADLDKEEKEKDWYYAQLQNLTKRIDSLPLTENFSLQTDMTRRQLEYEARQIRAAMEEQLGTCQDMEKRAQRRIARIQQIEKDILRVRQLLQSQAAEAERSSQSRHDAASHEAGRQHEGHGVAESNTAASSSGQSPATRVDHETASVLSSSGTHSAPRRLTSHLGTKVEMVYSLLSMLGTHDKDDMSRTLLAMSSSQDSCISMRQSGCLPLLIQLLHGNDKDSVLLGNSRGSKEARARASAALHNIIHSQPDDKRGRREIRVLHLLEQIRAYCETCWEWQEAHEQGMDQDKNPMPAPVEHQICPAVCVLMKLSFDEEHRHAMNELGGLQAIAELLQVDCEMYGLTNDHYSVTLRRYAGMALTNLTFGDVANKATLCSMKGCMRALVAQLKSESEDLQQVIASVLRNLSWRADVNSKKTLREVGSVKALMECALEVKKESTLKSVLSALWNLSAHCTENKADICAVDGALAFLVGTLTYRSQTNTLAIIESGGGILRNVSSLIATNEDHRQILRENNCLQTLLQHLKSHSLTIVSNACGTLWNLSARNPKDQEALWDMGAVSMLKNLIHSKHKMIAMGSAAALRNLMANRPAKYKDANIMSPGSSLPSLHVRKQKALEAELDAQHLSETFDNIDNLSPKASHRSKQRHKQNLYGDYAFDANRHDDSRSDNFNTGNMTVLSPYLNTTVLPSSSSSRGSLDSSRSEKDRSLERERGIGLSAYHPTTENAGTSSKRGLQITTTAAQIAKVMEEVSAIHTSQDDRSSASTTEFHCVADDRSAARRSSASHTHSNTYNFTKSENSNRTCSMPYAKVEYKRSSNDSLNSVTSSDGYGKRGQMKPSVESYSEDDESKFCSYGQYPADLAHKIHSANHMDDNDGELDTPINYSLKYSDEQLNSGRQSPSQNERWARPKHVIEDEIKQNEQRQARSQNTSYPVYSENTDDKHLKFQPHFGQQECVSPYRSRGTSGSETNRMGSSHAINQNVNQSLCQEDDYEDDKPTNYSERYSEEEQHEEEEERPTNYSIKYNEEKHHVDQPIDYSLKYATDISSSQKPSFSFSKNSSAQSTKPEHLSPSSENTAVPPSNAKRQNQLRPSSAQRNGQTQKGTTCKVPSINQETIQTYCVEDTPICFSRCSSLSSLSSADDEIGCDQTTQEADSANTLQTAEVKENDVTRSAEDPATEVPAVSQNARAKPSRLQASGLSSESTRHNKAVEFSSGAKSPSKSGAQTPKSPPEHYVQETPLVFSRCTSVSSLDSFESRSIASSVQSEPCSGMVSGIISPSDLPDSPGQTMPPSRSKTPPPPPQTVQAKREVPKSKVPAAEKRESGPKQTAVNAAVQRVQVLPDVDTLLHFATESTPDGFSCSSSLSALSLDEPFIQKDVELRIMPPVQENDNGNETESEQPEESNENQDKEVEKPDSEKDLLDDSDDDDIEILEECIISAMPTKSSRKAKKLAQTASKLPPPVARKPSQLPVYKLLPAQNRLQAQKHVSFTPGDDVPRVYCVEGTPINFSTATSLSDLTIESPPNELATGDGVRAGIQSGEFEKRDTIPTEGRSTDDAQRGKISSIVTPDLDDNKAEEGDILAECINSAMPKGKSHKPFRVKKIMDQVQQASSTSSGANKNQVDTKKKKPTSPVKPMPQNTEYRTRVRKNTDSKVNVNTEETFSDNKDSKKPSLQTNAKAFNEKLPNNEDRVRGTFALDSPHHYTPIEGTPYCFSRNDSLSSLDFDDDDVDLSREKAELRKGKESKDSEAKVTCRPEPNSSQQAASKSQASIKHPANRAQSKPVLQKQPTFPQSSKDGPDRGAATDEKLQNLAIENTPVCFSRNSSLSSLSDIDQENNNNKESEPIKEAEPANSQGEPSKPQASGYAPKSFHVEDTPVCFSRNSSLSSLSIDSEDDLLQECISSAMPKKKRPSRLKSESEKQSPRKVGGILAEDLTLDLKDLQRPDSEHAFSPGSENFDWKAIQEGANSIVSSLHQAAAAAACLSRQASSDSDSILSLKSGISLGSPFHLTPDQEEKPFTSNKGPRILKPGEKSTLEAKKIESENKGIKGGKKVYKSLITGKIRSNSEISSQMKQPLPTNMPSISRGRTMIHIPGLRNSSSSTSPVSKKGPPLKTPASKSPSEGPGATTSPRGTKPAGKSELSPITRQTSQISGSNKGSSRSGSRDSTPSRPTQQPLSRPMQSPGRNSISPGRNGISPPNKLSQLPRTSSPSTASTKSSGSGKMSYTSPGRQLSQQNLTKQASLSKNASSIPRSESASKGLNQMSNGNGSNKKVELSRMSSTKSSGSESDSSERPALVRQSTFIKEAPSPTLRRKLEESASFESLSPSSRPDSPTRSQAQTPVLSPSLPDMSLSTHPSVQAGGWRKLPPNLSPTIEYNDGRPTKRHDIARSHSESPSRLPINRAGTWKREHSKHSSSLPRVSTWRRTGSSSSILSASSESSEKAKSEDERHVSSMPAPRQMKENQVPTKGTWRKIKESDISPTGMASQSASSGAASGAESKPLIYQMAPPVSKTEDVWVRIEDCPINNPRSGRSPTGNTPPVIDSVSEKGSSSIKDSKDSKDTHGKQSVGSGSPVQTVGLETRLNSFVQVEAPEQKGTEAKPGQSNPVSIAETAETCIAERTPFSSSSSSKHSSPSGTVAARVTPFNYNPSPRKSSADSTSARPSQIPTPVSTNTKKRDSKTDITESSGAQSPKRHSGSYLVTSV
UniProt Q80TH2: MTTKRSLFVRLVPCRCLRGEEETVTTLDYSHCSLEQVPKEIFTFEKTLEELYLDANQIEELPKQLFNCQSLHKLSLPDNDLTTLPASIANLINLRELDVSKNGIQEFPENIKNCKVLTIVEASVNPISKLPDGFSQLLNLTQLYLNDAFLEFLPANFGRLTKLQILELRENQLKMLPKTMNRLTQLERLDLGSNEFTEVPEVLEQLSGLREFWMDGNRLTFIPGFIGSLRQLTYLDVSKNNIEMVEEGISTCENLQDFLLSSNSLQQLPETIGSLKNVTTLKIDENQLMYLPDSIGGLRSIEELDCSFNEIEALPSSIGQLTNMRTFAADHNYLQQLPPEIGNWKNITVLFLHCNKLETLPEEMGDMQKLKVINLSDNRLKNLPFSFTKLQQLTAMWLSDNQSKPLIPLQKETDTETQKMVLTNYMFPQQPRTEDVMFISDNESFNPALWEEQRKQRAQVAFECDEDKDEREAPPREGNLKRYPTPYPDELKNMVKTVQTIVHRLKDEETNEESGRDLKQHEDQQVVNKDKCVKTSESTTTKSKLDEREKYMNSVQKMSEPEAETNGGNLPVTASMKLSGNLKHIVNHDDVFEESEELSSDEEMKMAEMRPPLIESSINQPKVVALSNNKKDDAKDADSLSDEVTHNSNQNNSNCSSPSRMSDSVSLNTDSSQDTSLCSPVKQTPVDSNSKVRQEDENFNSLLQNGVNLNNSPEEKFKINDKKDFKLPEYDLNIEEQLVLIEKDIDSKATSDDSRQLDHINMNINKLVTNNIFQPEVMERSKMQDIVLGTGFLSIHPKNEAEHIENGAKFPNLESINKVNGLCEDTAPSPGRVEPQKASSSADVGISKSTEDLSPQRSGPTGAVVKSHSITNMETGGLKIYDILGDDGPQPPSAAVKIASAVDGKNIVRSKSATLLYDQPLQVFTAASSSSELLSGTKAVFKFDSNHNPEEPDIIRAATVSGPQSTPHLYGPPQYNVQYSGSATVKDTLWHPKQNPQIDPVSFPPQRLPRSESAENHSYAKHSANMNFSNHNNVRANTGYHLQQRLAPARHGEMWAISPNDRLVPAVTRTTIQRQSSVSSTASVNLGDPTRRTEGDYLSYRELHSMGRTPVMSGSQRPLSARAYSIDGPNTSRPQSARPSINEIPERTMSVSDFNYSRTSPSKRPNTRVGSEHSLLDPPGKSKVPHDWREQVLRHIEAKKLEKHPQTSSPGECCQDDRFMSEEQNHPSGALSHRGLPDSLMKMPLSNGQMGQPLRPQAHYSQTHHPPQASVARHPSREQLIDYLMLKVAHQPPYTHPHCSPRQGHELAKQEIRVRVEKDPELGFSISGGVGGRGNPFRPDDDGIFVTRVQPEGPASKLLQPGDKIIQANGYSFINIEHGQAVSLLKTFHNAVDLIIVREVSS

No constants are given. Whether binding was seen depends on the method and setting. Binding seen in cells or lysates may run through a third protein. These calls come from enrichment with a bait or labelling near it, and not all partners need be listed.

This test has as its target OTX2 homeoprotein (mouse (endogenous in adult mouse brain tissue)) (UniProt P80206). The test can be described thus: affinity purification with mass spectrometry; anti-OTX2 (ab21990) coupled to magnetic beads, lysate of pooled LV and 4V choroid plexus from four 3-month-old mice; 100 mM Tris pH 7.5, 1 mM EDTA, 100 mM NaCl, 1% NP40, 1 mM MgCl2, benzonase; 4 °C overnight; IgG co-IP as control; nano-LC-MS/MS; N = 3.

Regarding MSI2 (from UniProt Q920Q6 1-346), the binding entry is “binds”.

For the molecule ILF2 (from UniProt Q9CXY6 1-390), the binding entry is given as “binds”.

For MAP1A (from UniProt Q9QYR6 1-2776), the binding result was “binds”.

Consider GJA1 (from UniProt P23242 1-382), for which the binding result is recorded as “binds”.

Take CTNNA1 (from UniProt P26231 1-906): the binding result is recorded as “binds”.

In the case of ZFR (from UniProt O88532 1-1074), the binding entry is “binds”.

For MYCBP2 (from UniProt Q7TPH6 1-4749), the binding entry was “binds”.

TRPV4 (from UniProt Q9EPK8 1-871): the binding result is listed as “binds”.

As to KIFAP3 (from UniProt P70188 1-793), the binding entry is recorded as “binds”.

Consider DDX41 (from UniProt Q91VN6 1-622), for which the binding result was “binds”.

Take SRRM2 (from UniProt Q8BTI8 1-2703): the binding result is “binds”.

CDH3 (from UniProt P10287): the binding result is given as “binds”.

For ABCF1 (from UniProt Q6P542 1-837), the binding result is “binds”.

For the molecule MCM3AP (from UniProt Q9WUU9 1-1971), the binding result was “binds”.

With CTNNB1 (from UniProt Q02248 1-781), the binding entry is “binds”.

Consider PRRC2A (from UniProt Q7TSC1 1-2158), for which the binding entry is listed as “binds”.

In the case of EPB41L5 (from UniProt Q8BGS1 1-731), the binding result is listed as “binds”.

Take FMNL3 (from UniProt Q6ZPF4 1-1028): the binding entry was “binds”.

In the case of MAP4 (from UniProt P27546 1-1125), the binding result is given as “binds”.

As for APC (from UniProt Q61315 1-2845), the binding result is recorded as “binds”.

Regarding ERBIN (from UniProt Q80TH2 1-1402), the binding entry was “binds”.

Turning to LBR (from UniProt Q3U9G9 1-626), the binding result is “binds”.

Consider CDH2 (from UniProt P15116), for which the binding result is “binds”.

RPL29 (from UniProt P47915 1-160): the binding entry is “binds”.

B1: GIT2 (protein, UniProt Q9JLQ2 1-708)
chain: MSKRLRSSDVCADCNGPDPSWASVNRGTFICDECCSVHRSLGRHISQVRHLKHTAWPPTLLQMVETLYNNGANSIWEHSLLDPASIMSGRRKANPQDKVHPNKAEFIRAKYQMLAFVHRLPCREDDSVTAKDLSKQLHSSVRTGNLETCLRLLSLGAQANFFHPEKGSTPLHVASKAGQILQAELLAVYGADPGTQDSSGKTPVDYARQGGHHELAERLIEIQYELTDRLAFYLCGRKPDHKSGQHFLIPQRADSLDLSELAKAAKKKLQSLSNHLFEELAMDVYDEVDRRETDAVWLATQNHSTLVTETTVVPFLPVNPEYSSTRNQGRQKLARFNAHEFATLVIDILSDAKRRQQGSPLSRSKDNVELILRTVSTQHSTESQDNDQPDYDSVASDEDTDVETRASKANRQKLQTLQSENSSLRRQATASACQVQTGSDHKDTASHSSLKRRPSARGSRPMSMYETGSGQKPYLPMGEASHPEESRTRLQPFPTHIGRSALVTSSSSLPSFPSTLSWSRDESARRASRLEKQNSTPESDYDNTACDPEPDDTGSTRKGRQRSMLWQGDGLLPDTAEPHSVPSPTLPSTEDVIRKTEQITKNIQELLRAAQENKHDSYIPCSERIHVAVTEMAALFPKKPKSDTVRTSLRLLTSSAYRLQSECRKALPGDSSLPTDVQLVTQQVIQCAYDIAKAAKQLVTITTKENSS
In the case of B1, the binding entry is on record as “binds”.

B2: CTNNA2 (protein, UniProt Q61301 1-953)
chain: MTSATSPIILKWDPKSLEIRTLTVERLLEPLVTQVTTLVNTSNKGPSGKKKGRSKKAHVLAASVEQATQNFLEKGEQIAKESQDLKEELVAAVEDVRKQGETMRIASSEFADDPCSSVKRGTMVRAARALLSAVTRLLILADMADVMRLLSHLKIVEEALEAVKNATNEQDLANRFKEFGKEMVKLNYVAARRQQELKDPHCRDEMAAARGALKKNATMLYTASQAFLRHPDVAATRANRDYVFKQVQEAIAGISSAAQATSPTDEAKGHTGIGELAAALNEFDNKIILDPMTFSEARFRPSLEERLESIISGAALMADSSCTRDDRRERIVAECNAVRQALQDLLSEYMNNTGRKEKGDPLNIAIDKMTKKTRDLRRQLRKAVMDHISDSFLETNVPLLVLIEAAKSGNEKEVKEYAQVFREHANKLVEVANLACSISNNEEGVKLVRMAATQIDSLCPQVINAALTLAARPQSKVAQDNMDVFKDQWEKQVRVLTEAVDDITSVDDFLSVSENHILEDVNKCVIALQEGDVDTLDRTAGAIRGRAARVIHIINAEMENYEAGVYTEKVLEATKLLSETVMPRFAEQVEVAIEALSANVPQPFEENEFIDASRLVYDGVRDIRKAVLMIRTPEELEDDSDFEQEDYDVRSRTSVQTEDDQLIAGQSARAIMAQLPQEEKAKIAEQVEIFHQEKSKLDAEVAKWDDSGNDIIVLAKQMCMIMMEMTDFTRGKGPLKNTSDVINAAKKIAEAGSRMDKLARAVADQCPDSACKQDLLAYLQRIALYCHQLNICSKVKAEVQNLGGELIVSGTGVQSTFTTFYEVDCDVIDGGRASQLSTHLPTCAEGAPIGSGSSDSSMLDSATSLIQAAKNLMNAVVLTVKASYVASTKYQKVYGTAAVNSPVVSWKMKAPEKKPLVKREKPEEFQTRVRRGSQKKHISPVQALSEFKAMDSF
Take B2: the binding entry was “binds”.

B3: HNRPLL (protein, UniProt Q921F4 1-591)
chain: MSSSSSSSPKEETYEEDREFESQAKRLKTEEGEIVYSAEESENRQEATPQAGSDSDSGGGDGGDGDGGSGGGGDGEEGEGGEEGDEGDGDEGGSGGDEGGSGGGPRSMPLSTEGGGSHHKVSVSPVVHVRGLCESVVEADLVEALEKFGTICYVMMMPFKRQALVEFENIDSAKECVTFAADVPVYIAGQQAFFNYSTSKRITRPGNTDDPSGGNKVLLLSIQNPLYPITVDVLYTVCNPVGKVQRIVIFKRNGIQAMVEFESVLCAQKAKAALNGADIYAGCCTLKIEYARPTRLNVIRNDNDSWDYTKPYLGRRDRGKGRQRQAILGDHPSSFRHDGYGSHGPLLPLPSRYRMGSRDTPELVAYPLPQASSSYMHGGSPSGSVVMVSGLHQLKMNCSRVFNLFCLYGNIEKVKFMKTIPGTALVEMGDEYAVERAVTHLNNVKLFGKRLNVCVSKQHSVVPSQIFELEDGTSSYKDFAMSKNNRFTSAGQASKNIIQPPSCVLHYYNVPLCVTEETFTKLCNDHEVLPFIKYKVFDAKASAKTLSGLLEWKCKTDAVEALTALNHYQIRVPNGSNPYTLKLCFSTSSHL
For B3, the binding entry is given as “binds”.

B4: GPAM (protein, UniProt Q61586 1-827)
chain: MEESSVTVGTIDVSYLPSSSEYSLGRCKHTSEDWVDCGFKPTFFRSATLKWKESLMSRKRPFVGRCCYSCTPQSWERFFNPSIPSLGLRNVIYINETHTRHRGWLARRLSYILFVQERDVHKGMFATSVTENVLSSSRVQEAIAEVAAELNPDGSAQQQSKAIQKVKRKARKILQEMVATVSPGMIRLTGWVLLKLFNSFFWNIQIHKGQLEMVKAATETNLPLLFLPVHRSHIDYLLLTFILFCHNIKAPYIASGNNLNIPVFSTLIHKLGGFFIRRRLDETPDGRKDILYRALLHGHVVELLRQQQFLEIFLEGTRSRSGKTSCARAGLLSVVVDTLSSNTIPDILVIPVGISYDRIIEGHYNGEQLGKPKKNESLWSVARGVIRMLRKNYGYVRVDFAQPFSLKEYLEGQSQKPVSAPLSLEQALLPAILPSRPNDVADEHQDLSSNESRNPADEAFRRRLIANLAEHILFTASKSCAIMSTHIVACLLLYRHRQGIHLSTLVEDFFVMKEEVLARDFDLGFSGNSEDVVMHAIQLLGNCVTITHTSRKDEFFITPSTTVPSVFELNFYSNGVLHVFIMEAIIACSIYAVLNKRCSGGSAGGLGNLISQEQLVRKAASLCYLLSNEGTISLPCQTFYQVCHETVGKFIQYGILTVAEQDDQEDVSPGLAEQQWDKKLPELNWRSDEEDEDSDFGEEQRDCYLKVSQSKEHQQFITFLQRLLGPLLEAYSSAAIFVHNFSGPVPESEYLQKLHRYLITRTERNVAVYAESATYCLVKNAVKMFKDIGVFKETKQKRVSVLELSSTFLPQCNRQKLLEYILSFVVL
On to B4, for which the binding result is “binds”.

B5: GIT1 (protein, UniProt Q68FF6 1-770)
chain: MSRKGPRAEVCADCSAPDPGWASISRGVLVCDECCSVHRSLGRHISIVKHLRHSAWPPTLLQMVHTLASNGANSIWEHSLLDPAQVQSGRRKANPQDKVHPIKSEFIRAKYQMLAFVHKLPCRDDDGVTAKDLSKQLHSSVRTGNLETCLRLLSLGAQANFFHPEKGTTPLHVAAKAGQTLQAELLVVYGADPGSPDVNGRTPIDYARQAGHHELAERLVECQYELTDRLAFYLCGRKPDHKNGHYIIPQMADRSRQKCMSQSLDLSELAKAAKKKLQALSNRLFEELAMDVYDEVDRRENDAVWLATQNHSTLVTERSAVPFLPVNPEYSATRNQGRQKLARFNAREFATLIIDILSEAKRRQQGKSLSSPTDNLELSARSQSELDDQHDYDSVASDEDTDQEPLPSAGATRNNRARSMDSSDLSDGAVTLQEYLELKKALATSEAKVQQLMKVNSSLSDELRRLQREIHKLQAENLQLRQPPGPVPPPSLPSERAEHTLMGPGGSTHRRDRQAFSMYEPGSALKPFGGTPGDELATRLQPFHSTELEDDAIYSVHVPAGLYRIRKGVSASSVPFTPSSPLLSCSQEGSRHASKLSRHGSGADSDYENTQSGDPLLGLEGKRFLELSKEDELHPELESLDGDLDPGLPSTEDVILKTEQVTKNIQELLRAAQEFKHDSFVPCSEKIHLAVTEMASLFPKRPALEPVRSSLRLLNASAYRLQSECRKTVPPEPGAPVDFQLLTQQVIQCAYDIAKAAKQLVTITTREKKQ
On to B5, for which the binding entry is recorded as “binds”.

B6: GTPBP1 (protein, UniProt O08582 1-668)
chain: MAAERSRSPVDSPVPASMFAPEPSSPGAARAAAAAARLHGGFDSDCSEDGEALNGEPELDLTSKLVLVSPTSEQYDSLLRQMWERMDEGCGETIYVIGQGSDGTEYGLSEADMEASYATVKSMAEQIEADVILLRERQEAGGRVRDYLVRKRVGDNDFLEVRVAVVGNVDAGKSTLLGVLTHGELDNGRGFARQKLFRHKHEIESGRTSSVGNDILGFDSEGNVVNKPDSHGGSLEWTKICEKSSKVITFIDLAGHEKYLKTTVFGMTGHLPDFCMLMVGSNAGIVGMTKEHLGLALALNVPVFVVVTKIDMCPANILQETLKLLQRLLKSPGCRKIPVLVQSKDDVIVTASNFSSERMCPIFQISNVTGENLDLLKMFLNLLSPRTSYREEEPAEFQIDDTYSVPGVGTVVSGTTLRGLIKLNDTLLLGPDPLGNFLSIAVKSIHRKRMPVKEVRGGQTASFALKKIKRSSIRKGMVMVSPRLNPQASWEFEAEILVLHHPTTISPRYQAMVHCGSIRQTATILSMDKDCLRTGDKATVHFRFIKTPEYLHIDQRLVFREGRTKAVGTITKLLQTTNNSPMNSKPQQIKMQSTKKGPLSKREEGGPCGVPAAGGPPTGDEASSLGTAQAASTSGLQPQPKPSSGGRRRGGQRHKVKSGACVTPASGC
With B6, the binding result is “binds”.
